The target in the test is T1, UBAC2, endogenous (human (endogenous in HeLa, THP-1, HT-29)) (UniProt Q8NBM4).
T1 sequence: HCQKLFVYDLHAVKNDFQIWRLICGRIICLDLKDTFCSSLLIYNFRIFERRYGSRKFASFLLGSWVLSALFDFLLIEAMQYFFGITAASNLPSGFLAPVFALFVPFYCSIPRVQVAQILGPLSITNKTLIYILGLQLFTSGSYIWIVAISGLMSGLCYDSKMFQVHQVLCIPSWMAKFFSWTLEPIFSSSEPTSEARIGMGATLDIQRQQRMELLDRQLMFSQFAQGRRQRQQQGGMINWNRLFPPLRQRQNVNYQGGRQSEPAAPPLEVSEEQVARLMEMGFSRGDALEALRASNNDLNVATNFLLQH
As to the kind of experiment: affinity purification with mass spectrometry; HeLa lysates immunoprecipitated with antibody against UBAC2; eluates resolved by SDS-PAGE, trypsin digest, LC-MS/MS (Q Exactive).

By UniProt entry, the sequences of proteins in these tests, tags left out.
UniProt Q7KZI7: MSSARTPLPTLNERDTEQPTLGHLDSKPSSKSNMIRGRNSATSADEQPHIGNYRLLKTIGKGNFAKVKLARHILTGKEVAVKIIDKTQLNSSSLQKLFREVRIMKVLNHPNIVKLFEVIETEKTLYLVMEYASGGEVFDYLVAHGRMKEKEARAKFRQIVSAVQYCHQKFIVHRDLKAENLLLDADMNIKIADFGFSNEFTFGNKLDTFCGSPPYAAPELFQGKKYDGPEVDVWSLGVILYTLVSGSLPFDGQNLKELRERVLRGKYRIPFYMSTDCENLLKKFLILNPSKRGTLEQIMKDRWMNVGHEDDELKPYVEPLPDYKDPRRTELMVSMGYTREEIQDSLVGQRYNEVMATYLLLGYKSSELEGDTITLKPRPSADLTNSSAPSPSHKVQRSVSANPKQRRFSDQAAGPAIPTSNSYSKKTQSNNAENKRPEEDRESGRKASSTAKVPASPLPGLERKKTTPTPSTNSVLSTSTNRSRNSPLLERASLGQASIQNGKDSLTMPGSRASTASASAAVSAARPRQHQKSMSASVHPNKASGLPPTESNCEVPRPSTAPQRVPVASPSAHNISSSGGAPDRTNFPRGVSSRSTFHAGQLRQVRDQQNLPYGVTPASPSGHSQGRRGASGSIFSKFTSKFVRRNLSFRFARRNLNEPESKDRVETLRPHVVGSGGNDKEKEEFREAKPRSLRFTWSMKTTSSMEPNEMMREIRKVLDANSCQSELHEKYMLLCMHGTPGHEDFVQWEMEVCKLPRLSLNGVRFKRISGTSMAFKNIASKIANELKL

These are yes or no findings as the source states them, for the method shown. In cells and extracts the contact can be indirect. Here binding means that the protein was enriched with, or labelled near, the bait; the list need not be complete.

The record followed here is publication PMC11535055, “ER-phagy restrains inflammatory responses through its receptor UBAC2” (The EMBO Journal, 2024).

As for “microtubule affinity-regulating kinase 2 (MARK2), endogenous (from UniProt Q7KZI7 1-788) (enzyme)”, the binding entry is “binds”.
